The text below walks through data of PMC11832416, “Mechanism of polyadenylation-independent RNA polymerase II termination” (Nature Structural & Molecular Biology, 2024).

Protein sequences, listed by entry. Tags and fused reporters are not part of them.
UniProt Q00416: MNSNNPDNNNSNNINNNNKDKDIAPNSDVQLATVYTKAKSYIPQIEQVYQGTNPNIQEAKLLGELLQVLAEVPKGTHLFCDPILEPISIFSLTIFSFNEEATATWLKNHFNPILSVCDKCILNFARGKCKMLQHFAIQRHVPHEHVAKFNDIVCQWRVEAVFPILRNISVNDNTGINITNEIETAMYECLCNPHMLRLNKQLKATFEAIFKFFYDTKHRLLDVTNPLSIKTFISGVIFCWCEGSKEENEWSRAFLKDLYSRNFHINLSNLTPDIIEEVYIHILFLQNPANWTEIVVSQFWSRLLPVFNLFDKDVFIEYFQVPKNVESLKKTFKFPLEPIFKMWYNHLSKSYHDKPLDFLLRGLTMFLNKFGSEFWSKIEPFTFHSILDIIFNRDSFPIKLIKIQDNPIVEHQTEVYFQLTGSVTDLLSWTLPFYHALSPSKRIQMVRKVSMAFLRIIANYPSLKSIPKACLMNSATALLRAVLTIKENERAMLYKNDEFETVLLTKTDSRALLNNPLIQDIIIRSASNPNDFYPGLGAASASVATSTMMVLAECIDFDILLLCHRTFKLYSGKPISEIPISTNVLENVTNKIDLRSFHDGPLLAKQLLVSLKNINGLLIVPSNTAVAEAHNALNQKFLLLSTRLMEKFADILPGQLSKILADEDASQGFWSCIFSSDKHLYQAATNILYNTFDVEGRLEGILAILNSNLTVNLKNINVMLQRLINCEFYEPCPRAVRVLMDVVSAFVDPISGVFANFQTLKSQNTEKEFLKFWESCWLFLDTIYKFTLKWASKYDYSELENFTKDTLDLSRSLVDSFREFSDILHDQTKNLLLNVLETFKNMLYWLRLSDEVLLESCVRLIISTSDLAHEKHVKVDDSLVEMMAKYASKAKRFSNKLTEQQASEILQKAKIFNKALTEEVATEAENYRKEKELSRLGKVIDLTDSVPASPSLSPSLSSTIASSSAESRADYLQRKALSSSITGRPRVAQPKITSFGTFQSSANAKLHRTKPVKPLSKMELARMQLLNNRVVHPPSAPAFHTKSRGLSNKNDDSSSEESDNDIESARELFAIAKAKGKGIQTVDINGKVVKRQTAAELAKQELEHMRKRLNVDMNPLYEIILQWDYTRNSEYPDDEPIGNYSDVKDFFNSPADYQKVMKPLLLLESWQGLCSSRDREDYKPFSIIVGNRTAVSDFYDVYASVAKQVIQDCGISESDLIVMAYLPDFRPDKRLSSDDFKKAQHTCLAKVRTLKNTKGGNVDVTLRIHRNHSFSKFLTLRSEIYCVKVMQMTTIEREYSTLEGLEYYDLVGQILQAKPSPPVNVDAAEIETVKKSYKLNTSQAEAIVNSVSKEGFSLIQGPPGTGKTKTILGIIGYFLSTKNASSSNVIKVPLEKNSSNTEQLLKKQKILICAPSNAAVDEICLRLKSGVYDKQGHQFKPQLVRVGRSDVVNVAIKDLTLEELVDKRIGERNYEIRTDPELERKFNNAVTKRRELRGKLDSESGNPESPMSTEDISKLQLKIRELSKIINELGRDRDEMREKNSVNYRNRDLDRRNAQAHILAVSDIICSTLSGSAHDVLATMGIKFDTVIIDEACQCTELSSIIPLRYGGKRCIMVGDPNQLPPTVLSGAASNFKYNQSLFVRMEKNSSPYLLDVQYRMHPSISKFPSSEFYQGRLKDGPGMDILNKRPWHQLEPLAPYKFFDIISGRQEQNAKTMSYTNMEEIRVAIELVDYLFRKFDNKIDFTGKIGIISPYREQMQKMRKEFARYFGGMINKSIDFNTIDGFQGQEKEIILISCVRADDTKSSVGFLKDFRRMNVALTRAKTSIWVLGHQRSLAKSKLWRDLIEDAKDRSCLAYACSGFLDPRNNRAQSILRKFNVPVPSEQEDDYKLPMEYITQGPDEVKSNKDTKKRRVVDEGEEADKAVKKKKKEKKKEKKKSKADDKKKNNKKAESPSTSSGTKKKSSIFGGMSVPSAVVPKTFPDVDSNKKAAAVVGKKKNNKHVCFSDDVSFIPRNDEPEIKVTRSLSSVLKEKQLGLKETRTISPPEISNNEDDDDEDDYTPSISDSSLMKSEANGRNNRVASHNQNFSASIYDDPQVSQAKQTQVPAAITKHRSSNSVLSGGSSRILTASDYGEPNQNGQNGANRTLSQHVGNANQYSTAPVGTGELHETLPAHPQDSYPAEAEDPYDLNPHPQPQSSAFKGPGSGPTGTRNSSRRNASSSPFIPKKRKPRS

Where two headings read alike, the source gives them in different places. No constants are given. Whether binding was seen depends on the method and setting. Some binding calls cover weakened binding; strength is not graded here. Tags and fused reporters may be left off the sequences shown.

What all share (assay): cryo-EM structure; pre-TC reconstituted from purified CDK7-phosphorylated Pol II, Spt4-Spt5 complex, Elf1 and Sen1 on a DNA-RNA scaffold with a 35-nt RNA; buffer EM (25 mM HEPES pH 7.6, 100 mM KCl, 5 mM MgCl2, 3 mM TCEP); 10-30% sucrose gradient with crosslinking (GraFix); apo state, no nucleotide; both purified
Test [1] concerns the target T1, Saccharomyces cerevisiae Elf1 (S. cerevisiae) (UniProt P36053).
T1 sequence: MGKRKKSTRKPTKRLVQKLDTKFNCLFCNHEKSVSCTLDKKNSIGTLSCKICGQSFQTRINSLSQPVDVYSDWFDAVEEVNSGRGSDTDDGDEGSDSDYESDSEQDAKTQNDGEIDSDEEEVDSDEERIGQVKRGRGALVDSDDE

Test [2] addresses T2, Saccharomyces cerevisiae Spt4 (S. cerevisiae) (UniProt P32914).
T2 sequence: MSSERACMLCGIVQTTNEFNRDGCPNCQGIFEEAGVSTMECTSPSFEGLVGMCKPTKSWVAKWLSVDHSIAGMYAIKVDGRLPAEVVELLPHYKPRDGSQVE

The target of test [3] is T3, Saccharomyces cerevisiae Spt5 (S. cerevisiae) (UniProt P27692).
T3 sequence: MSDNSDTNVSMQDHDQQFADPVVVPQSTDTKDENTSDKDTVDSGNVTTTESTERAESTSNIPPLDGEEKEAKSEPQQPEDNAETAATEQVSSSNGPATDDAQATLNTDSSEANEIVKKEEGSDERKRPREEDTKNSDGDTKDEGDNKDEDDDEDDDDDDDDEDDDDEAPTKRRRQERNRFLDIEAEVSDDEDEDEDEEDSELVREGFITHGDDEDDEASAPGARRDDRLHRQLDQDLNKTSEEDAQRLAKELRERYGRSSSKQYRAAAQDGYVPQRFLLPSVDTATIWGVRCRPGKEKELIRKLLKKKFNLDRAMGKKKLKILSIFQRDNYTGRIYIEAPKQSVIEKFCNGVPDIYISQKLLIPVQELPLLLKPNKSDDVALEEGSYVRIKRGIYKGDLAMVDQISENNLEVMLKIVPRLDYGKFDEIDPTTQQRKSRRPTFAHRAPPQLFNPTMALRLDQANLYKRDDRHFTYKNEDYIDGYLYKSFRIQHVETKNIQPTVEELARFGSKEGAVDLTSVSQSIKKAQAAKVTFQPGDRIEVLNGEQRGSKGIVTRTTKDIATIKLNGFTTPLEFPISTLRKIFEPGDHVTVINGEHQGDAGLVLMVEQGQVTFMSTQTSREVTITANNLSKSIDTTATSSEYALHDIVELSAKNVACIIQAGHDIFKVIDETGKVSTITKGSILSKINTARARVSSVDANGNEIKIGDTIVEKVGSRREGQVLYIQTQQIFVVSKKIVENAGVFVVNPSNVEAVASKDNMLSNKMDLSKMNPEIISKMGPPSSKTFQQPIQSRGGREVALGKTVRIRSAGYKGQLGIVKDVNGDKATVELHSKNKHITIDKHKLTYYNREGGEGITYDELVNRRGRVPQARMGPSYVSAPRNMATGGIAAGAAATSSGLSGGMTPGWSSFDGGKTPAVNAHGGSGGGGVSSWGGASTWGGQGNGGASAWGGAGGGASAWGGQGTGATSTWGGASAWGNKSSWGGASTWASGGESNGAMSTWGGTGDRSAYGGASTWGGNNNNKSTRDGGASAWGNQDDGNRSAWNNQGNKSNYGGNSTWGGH

Test [4] concerns the target T3, Saccharomyces cerevisiae Spt5 (S. cerevisiae). This is another data set of the same source.

As to “Saccharomyces cerevisiae Sen1 full length (Sen1 FL) (from UniProt Q00416 1-2231) (enzyme)”, the binding entry in test [1], in test [2] and in test [3] was “no binding” each time.

B1: Saccharomyces cerevisiae Spt4 (protein, UniProt P32914 1-102)
chain: MSSERACMLCGIVQTTNEFNRDGCPNCQGIFEEAGVSTMECTSPSFEGLVGMCKPTKSWVAKWLSVDHSIAGMYAIKVDGRLPAEVVELLPHYKPRDGSQVE
With B1, the binding entry in test [4] was “binds”.
